Small differences around the control level are noise.
Columns and labels:
Experiment in all cases: normalised response (% of control), CellTox Green; higher = less cell death (100 = DMSO, 0 = benzethonium chloride kill control)
Details in all cases: incubation time: 72 h
HDQ-P1 = tested on: HDQ-P1
Experimental: (§1)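 DSRT, 72 h incubation, CellTox Green / CellTiter-Glo readout. Signal is normalised to DMSO and benzethonium chloride controls. Value is the normalised response at dose 2.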

CAL-51 = tested on: CAL-51
Experimental: as §1

BT-549 = tested on: BT-549
Experimental: as §1

MDA-MB-231 = tested on: MDA-MB-231
Experimental: as §1

HCC1937 = tested on: HCC1937
Experimental: as §1

HCC1143 = tested on: HCC1143
Experimental: as §1

MDA-MB-453 = tested on: MDA-MB-453
Experimental: as §1

DU-4475 = tested on: DU-4475
Experimental: as §1

CAL-148 = tested on: CAL-148
Experimental: as §1

MDA-MB-468 = tested on: MDA-MB-468
Experimental: as §1

MCF-10A = tested on: MCF-10A
Experimental: as §1

Hs578T = tested on: Hs578T
Experimental: as §1

HCC1599 = tested on: HCC1599
Experimental: as §1

MFM-223 = tested on: MFM-223
Experimental: as §1

CAL-120 = tested on: CAL-120
Experimental: as §1

MDA-MB-436 = tested on: MDA-MB-436
Experimental: as §1

CAL-85-1 = tested on: CAL-85-1
Experimental: as §1

BT-474 = tested on: BT-474
Experimental: as §1

Structure (SMILES)	normalised response (HDQ-P1) [%]	normalised response (CAL-51) [%]	normalised response (BT-549) [%]	normalised response (MDA-MB-231) [%]	normalised response (HCC1937) [%]	normalised response (HCC1143) [%]	normalised response (MDA-MB-453) [%]	normalised response (DU-4475) [%]	normalised response (CAL-148) [%]	normalised response (MDA-MB-468) [%]	normalised response (MCF-10A) [%]	normalised response (Hs578T) [%]	normalised response (HCC1599) [%]	normalised response (MFM-223) [%]	normalised response (CAL-120) [%]	normalised response (MDA-MB-436) [%]	normalised response (CAL-85-1) [%]	normalised response (BT-474) [%]
COc1ccc(S(=O)(=O)Nc2cccnc2Nc2ccc(O)cc2)cc1 [ABT-751] (10 nM)	110	103	105	98.7	98.7	83.3	106	110	96.1	57.2	98.2	116	114	99.8	104	110	99.2	97.4
Cc1c(N)nc([C@H](CC(N)=O)NC[C@H](N)C(N)=O)nc1C(=O)N[C@H](C(=O)N[C@H](C)[C@@H](O)[C@H](C)C(=O)N[C@H](C(=O)NCCc1nc(-c2nc(C(=O)NCCC[S+](C)C)cs2)cs1)[C@@H](C)O)[C@@H](OC1OC(CO)C(O)C(O)C1OC1OC(CO)C(O)C(OC(N)=O)C1O)c1cnc[nH]1 (stereo partly drawn) [Bleomycin] (10 nM)	69.4	92.6	99.6	102	111	105	93.2	94.7	103	108	103	110	94.3	101	99.2	97.7	97.2	97
CC(C)C[C@H](NC(=O)[C@H](Cc1ccccc1)NC(=O)c1cnccn1)B(O)O [Bortezomib] (1 nM)	115	99.2	105	116	119	103	101	96.9	110	96.3	109	117	101	103	100	92.8	101	99.4
Nc1ncn([C@H]2C[C@H](O)[C@@H](CO)O2)c(=O)n1 [Decitabine] (10 nM)		90.6	110	102	96.8	122	94.9	104	84.8	94.1	108	111	110	92.3	103	82.3	99	102
COC1=CC(c2cc3ccccc3[nH]2)=N/C1=C\c1[nH]c(C)cc1C [Obatoclax] (10 nM)	101	101	90.3		70.7	64	95.6	95.9		106	100	114	96.5	94.2	100	104	94.8	77.2
CNC(=O)c1cc(Oc2ccc(NC(=O)Nc3ccc(Cl)c(C(F)(F)F)c3)cc2)ccn1 [Sorafenib] (1 nM)	115	115	101	96.9	65.1		98.8	99.2	103	115	51.4	109	98.7	101	95.8	95.1	104	100
CN(N=O)C(=O)N[C@@H](C=O)[C@@H](O)[C@H](O)[C@H](O)CO [Streptozocin] (10 nM)	114	102	108		88.4	113	102	101	111	127	92.1	129	106	95.6	99.9	88.7	101	106
C[C@@H](C(=O)O)c1ccc(-c2ccccc2)c(F)c1 [Tarenflurbil] (10 nM)	121	107	95.1	78.2	75.8	109	101	96.8	79.7	90.8	79	104	99.5	100	99.7		96.5	99.4
CC[C@@H]1C(=O)N(C)c2cnc(Nc3ccc(C(=O)N[C@H]4CC[C@H](N5CCN(CC6CC6)CC5)CC4)cc3OC)nc2N1C(C)C [Volasertib] (1 nM)	104	107	99.4	105	73.2	83.7	89.6	95.5		94.7	93.5	114	84.1	76.7	96.4	82.1	102	93.7

An excerpt from above, reduced to normalised response (MDA-MB-453) [%]:
Structure (SMILES)	normalised response (MDA-MB-453) [%]
Cc1c(N)nc([C@H](CC(N)=O)NC[C@H](N)C(N)=O)nc1C(=O)N[C@H](C(=O)N[C@H](C)[C@@H](O)[C@H](C)C(=O)N[C@H](C(=O)NCCc1nc(-c2nc(C(=O)NCCC[S+](C)C)cs2)cs1)[C@@H](C)O)[C@@H](OC1OC(CO)C(O)C(O)C1OC1OC(CO)C(O)C(OC(N)=O)C1O)c1cnc[nH]1 (stereo partly drawn) [Bleomycin] (10 nM)	93.2
CNC(=O)c1cc(Oc2ccc(NC(=O)Nc3ccc(Cl)c(C(F)(F)F)c3)cc2)ccn1 [Sorafenib] (1 nM)	98.8

Reference: the supplement of paper PMC4862054
